From PubChem BioAssay AID248 (DTP/NCI, 2004)
The list does not hold the whole screen: it gathers tests that were run many times, whatever their T/C, doses with no T/C, and many T/C values between a quarter and a half above the control. Further doses and runs are listed elsewhere. T/C: endpoint of the treated group in % of that of the vehicle group. Some entries give survivors of the animals treated and no T/C: the source files T/C as zero there, which appears to mark a toxic dose or a test without result, not a measured value. Some doses without a T/C left all or most animals alive at the check, yet need not have been tolerated: the source hardly ever lists a survival T/C far under the control, and the zero likely stands for such cases as well. Survivors were counted at the toxicity check, usually on the fifth day, unless a day is given; later deaths do not show. Schedule codes are those of the source, read here as Q, the interval in days (D) or hours (H), X, the number of doses. Some schedule codes hold Z or #, which are not explained here. For survival time, this PubChem deposit counts one and a half times the control or more as active, and values a quarter to a half above the control carry no call in these data; other NCI protocols may use other cut-offs. Some T/C values are followed by the survivors on the day toxicity was checked, most often the fifth; where none is given, no animal had died by that day.

System: L1210 leukemia ip in BDF1 mice, survival T/C
Assay: NCI In Vivo Anticancer Drug Screen. Data for tumor model L1210 Leukemia (intraperitoneal) in B6D2F1 (BDF1) mice
Conditions: T/C endpoint: mean survival time, higher T/C = longer survival
[1] = dose: 400.0 mg/kg/injection, schedule: Q01DX009 (ip), vehicle: Klucel (hydroxypropylcellulose) (HPC)
[2] = dose: 400.0 mg/kg/injection, schedule: Q01DX001 (ip), vehicle: saline
[3] = dose: 400.0 mg/kg/injection, schedule: Q01DX001 (ip), vehicle: acetone

COc1cccc(NC(=S)NN)c1
survivor count (dose: 50.0 mg/kg/injection, schedule: Q04DX002 (ip), vehicle: Klucel (hydroxypropylcellulose) (HPC)): 3 of 3
survivor count (dose: 100.0 mg/kg/injection, schedule: Q04DX002 (ip), vehicle: Klucel (hydroxypropylcellulose) (HPC)): 0 of 3
survivor count (dose: 200.0 mg/kg/injection, schedule: Q04DX002 (ip), vehicle: Klucel (hydroxypropylcellulose) (HPC)): 0 of 3
survivor count (dose: 400.0 mg/kg/injection, schedule: Q04DX002 (ip), vehicle: Klucel (hydroxypropylcellulose) (HPC)): 0 of 3

Clc1ccc2c(Cl)ccnc2c1
survivor count (dose: 400.0 mg/kg/injection, schedule: Q04DX002 (ip), vehicle: gum acacia): 0 of 3

O=C(Nc1cccc([N+](=O)[O-])c1)Nc1ccccc1F
survivor count (dose: 100.0 mg/kg/injection, schedule: Q01DX009 (ip), vehicle: Klucel (hydroxypropylcellulose) (HPC)): 6 of 6
survivor count (dose: 200.0 mg/kg/injection, schedule: Q01DX009 (ip), vehicle: Klucel (hydroxypropylcellulose) (HPC)): 6 of 6
survivor count [1]: 6 of 6

NC1(C(=O)O)CC(O)(c2ccccc2)C(O)(c2ccccc2)C1 (stereo not drawn)
survivor count [2]: 4 of 4

CC(C)c1oc(=O)cc2c1[C@@H](O)[C@H]1OC(=O)[C@@]3(C)[C@@H](O)[C@H]4O[C@H]4[C@@]2(C)[C@@H]13
survivor count (dose: 80.0 mg/kg/injection, schedule: Q01DX001 (ip), vehicle: steroid suspending solution): 0 of 6
survivor count (dose: 100.0 mg/kg/injection, schedule: Q01DX001 (ip), vehicle: steroid suspending solution): 0 of 6
survivor count (dose: 200.0 mg/kg/injection, schedule: Q01DX001 (ip), vehicle: steroid suspending solution): 0 of 6
survivor count (dose: 400.0 mg/kg/injection, schedule: Q01DX001 (ip), vehicle: steroid suspending solution): 0 of 6

CC(=O)CCC(C(=O)c1ccccc1)c1ccccc1 (stereo not drawn)
survivor count (dose: 333.0 mg/kg/injection, schedule: Q01DX Z (ip), vehicle: methylcellulose (MC)): 5 of 6
survivor count (dose: 500.0 mg/kg/injection, schedule: Q01DX Z (ip), vehicle: methylcellulose (MC)): 3 of 6

Clc1ccccc1CSc1ncnc2nc[nH]c12
T/C (dose: 120.0 mg/kg/injection, schedule: Q01DX009 (ip), vehicle: saline): 126 % of control
T/C (dose: 125.0 mg/kg/injection, schedule: Q01DX Z (ip), vehicle: other): 140 % of control
T/C (dose: 200.0 mg/kg/injection, schedule: Q01DX009 (ip), vehicle: saline): 138 % of control
T/C (dose: 250.0 mg/kg/injection, schedule: Q01DX Z (ip), vehicle: other): 133 % of control
T/C [3]: 138 % of control [5 of 6 alive]

Cc1nc(N(C)C)c2cnn(-c3ccccc3)c2n1
survivor count (dose: 200.0 mg/kg/injection, schedule: Q01DX009 (ip), vehicle: saline with Tween-80): 1 of 6
survivor count [3]: 0 of 6

BrCCC[P+](c1ccccc1)(c1ccccc1)c1ccccc1
survivor count (dose: 25.0 mg/kg/injection, schedule: Q01DX009 (ip), vehicle: saline with Tween-80): 6 of 6
survivor count (dose: 50.0 mg/kg/injection, schedule: Q01DX009 (ip), vehicle: saline with Tween-80): 0 of 6
survivor count (dose: 100.0 mg/kg/injection, schedule: Q04DX003 (ip), vehicle: Klucel (hydroxypropylcellulose) (HPC)): 5 of 6
survivor count (dose: 100.0 mg/kg/injection, schedule: Q04DX003 (ip), vehicle: saline with Tween-80): 5 of 6
survivor count (dose: 200.0 mg/kg/injection, schedule: Q01DX001 (ip), vehicle: saline): 1 of 4
survivor count (dose: 200.0 mg/kg/injection, schedule: Q04DX003 (ip), vehicle: Klucel (hydroxypropylcellulose) (HPC)): 0 of 6
survivor count [2]: 0 of 4

O=C(Nc1ccc(C2=NCCN2)cc1)c1ccc(C(=O)Nc2ccc(C3=NCCN3)cc2)c(F)c1
T/C (dose: 5.5 mg/kg/injection, schedule: Q01DX Z (ip), vehicle: carboxymethylcellulose (CMC)): 134 % of control
survivor count (dose: 360.0 mg/kg/injection, schedule: Q01DX Z (ip), vehicle: carboxymethylcellulose (CMC)): 6 of 6

CC(C)CC(NC(=O)OC(C)(C)C)C(=O)NC(Cc1c[nH]c2ccccc12)C(=O)NN (stereo not drawn)
survivor count (dose: 200.0 mg/kg/injection, schedule: Q01DX001 (ip), vehicle: carboxymethylcellulose (CMC)): 6 of 6

CCOC(=O)c1ccc(NC(=O)Nc2cccc(F)c2)cc1
survivor count [1]: 2 of 3
